Data published in US20160195533A1, “METHOD FOR SCREENING EMT INHIBITOR” (Medicinal Bioconvergence Research Center, priority 2015, published 2016).
These are yes or no findings as the source states them, for the method shown. Binding seen in cells or lysates may run through a third protein. Some results given as binding are weak or reduced against the parent protein; the word gives no strength.

Protein sequences, listed by entry. Tags and fused reporters are not part of them. Lines headed by an entry give the natural chain unless they say otherwise; changes in a name come on top.
UniProt O95863: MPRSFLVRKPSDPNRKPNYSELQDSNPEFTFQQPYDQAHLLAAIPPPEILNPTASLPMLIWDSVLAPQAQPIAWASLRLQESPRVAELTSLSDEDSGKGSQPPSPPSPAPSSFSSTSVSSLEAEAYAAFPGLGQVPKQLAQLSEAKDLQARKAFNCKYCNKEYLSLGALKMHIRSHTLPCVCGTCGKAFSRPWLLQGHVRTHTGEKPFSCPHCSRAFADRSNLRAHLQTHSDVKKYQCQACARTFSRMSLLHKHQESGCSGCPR
UniProt P07814: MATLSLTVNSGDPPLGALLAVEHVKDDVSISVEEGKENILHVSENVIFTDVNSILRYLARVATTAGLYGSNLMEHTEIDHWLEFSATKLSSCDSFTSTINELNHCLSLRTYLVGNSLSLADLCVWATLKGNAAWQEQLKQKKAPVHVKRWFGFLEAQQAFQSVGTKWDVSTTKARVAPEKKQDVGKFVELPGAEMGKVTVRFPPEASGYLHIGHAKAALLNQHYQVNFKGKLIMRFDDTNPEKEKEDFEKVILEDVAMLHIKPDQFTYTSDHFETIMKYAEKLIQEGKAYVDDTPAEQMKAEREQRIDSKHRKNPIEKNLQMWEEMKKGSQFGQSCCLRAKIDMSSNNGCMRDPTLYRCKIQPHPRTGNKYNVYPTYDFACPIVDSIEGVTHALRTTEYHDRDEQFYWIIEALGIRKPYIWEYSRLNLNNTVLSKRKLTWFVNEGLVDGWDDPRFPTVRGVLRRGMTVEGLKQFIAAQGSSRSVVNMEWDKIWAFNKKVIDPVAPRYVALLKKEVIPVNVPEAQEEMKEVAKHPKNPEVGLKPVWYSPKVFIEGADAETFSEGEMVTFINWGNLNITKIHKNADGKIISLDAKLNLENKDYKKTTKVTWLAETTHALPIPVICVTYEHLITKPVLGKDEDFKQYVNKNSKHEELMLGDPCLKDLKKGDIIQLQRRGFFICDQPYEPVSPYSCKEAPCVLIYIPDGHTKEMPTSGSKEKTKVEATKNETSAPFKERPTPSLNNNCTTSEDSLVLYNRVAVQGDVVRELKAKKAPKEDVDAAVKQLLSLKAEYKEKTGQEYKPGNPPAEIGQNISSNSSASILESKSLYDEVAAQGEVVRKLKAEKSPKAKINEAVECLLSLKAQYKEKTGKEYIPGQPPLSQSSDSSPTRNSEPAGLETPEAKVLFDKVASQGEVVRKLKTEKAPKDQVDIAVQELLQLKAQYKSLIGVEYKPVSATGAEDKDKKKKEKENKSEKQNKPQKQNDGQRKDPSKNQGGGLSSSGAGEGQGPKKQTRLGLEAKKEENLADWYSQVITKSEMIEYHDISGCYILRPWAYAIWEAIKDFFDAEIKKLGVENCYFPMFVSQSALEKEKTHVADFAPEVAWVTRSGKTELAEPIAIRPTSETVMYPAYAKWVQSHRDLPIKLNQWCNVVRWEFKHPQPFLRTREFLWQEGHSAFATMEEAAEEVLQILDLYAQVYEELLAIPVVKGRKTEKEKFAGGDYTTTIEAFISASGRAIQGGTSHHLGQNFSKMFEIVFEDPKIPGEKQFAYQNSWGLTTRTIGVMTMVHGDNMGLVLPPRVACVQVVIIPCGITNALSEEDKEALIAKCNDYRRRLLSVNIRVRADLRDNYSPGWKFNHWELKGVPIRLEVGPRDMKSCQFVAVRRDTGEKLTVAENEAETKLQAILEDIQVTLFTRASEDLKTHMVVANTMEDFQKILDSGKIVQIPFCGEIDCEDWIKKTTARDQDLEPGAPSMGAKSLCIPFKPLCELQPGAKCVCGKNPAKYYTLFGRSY

How the values were obtained:
[1] = target: Flag-tagged Snail1 (pCMV-Tag2B N-terminal Flag-tagged Snail1 expression vector, Addgene) (human) (UniProt O95863); assay: Strep pull-down (MagSTREP type 2HC) from co-transfected HEK293T cells, anti-Flag western blot
[2] = target: glutamyl-prolyl-tRNA synthetase (EPRS), endogenous protein of A549 or HEK293T cells (human) (UniProt P07814); assay: Strep pull-down (MagSTREP type 2HC) from HEK293T lysate, anti-EPRS western blot

Substance	binding [1]	binding [2]
2× Strep-tagged EPRS (pEXPR-2×IBA105-EPRS) (from UniProt P07814 1-1512) (enzyme)	binds	
Strep-tagged Snail1 (pEXPR-IBA105-Snail1) (from UniProt O95863 1-264)		binds
